Assay results reported in article doi:10.1101/152520.
These are yes or no findings as the source states them, for the method shown. Binding seen in cells or lysates may run through a third protein. Here binding means that the protein was enriched with, or labelled near, the bait; the list need not be complete.

By UniProt entry, the sequences of proteins in these tests, tags left out.
UniProt Q99729: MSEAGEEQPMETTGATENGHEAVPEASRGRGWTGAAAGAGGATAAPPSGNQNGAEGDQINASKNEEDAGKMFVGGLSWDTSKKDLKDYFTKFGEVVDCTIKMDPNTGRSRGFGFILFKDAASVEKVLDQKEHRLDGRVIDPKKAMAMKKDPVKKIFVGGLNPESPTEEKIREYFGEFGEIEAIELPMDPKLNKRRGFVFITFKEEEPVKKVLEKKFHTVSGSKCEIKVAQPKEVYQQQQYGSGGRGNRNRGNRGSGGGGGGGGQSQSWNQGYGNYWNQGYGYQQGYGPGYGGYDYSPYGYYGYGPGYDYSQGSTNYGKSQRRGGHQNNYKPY
UniProt P52701: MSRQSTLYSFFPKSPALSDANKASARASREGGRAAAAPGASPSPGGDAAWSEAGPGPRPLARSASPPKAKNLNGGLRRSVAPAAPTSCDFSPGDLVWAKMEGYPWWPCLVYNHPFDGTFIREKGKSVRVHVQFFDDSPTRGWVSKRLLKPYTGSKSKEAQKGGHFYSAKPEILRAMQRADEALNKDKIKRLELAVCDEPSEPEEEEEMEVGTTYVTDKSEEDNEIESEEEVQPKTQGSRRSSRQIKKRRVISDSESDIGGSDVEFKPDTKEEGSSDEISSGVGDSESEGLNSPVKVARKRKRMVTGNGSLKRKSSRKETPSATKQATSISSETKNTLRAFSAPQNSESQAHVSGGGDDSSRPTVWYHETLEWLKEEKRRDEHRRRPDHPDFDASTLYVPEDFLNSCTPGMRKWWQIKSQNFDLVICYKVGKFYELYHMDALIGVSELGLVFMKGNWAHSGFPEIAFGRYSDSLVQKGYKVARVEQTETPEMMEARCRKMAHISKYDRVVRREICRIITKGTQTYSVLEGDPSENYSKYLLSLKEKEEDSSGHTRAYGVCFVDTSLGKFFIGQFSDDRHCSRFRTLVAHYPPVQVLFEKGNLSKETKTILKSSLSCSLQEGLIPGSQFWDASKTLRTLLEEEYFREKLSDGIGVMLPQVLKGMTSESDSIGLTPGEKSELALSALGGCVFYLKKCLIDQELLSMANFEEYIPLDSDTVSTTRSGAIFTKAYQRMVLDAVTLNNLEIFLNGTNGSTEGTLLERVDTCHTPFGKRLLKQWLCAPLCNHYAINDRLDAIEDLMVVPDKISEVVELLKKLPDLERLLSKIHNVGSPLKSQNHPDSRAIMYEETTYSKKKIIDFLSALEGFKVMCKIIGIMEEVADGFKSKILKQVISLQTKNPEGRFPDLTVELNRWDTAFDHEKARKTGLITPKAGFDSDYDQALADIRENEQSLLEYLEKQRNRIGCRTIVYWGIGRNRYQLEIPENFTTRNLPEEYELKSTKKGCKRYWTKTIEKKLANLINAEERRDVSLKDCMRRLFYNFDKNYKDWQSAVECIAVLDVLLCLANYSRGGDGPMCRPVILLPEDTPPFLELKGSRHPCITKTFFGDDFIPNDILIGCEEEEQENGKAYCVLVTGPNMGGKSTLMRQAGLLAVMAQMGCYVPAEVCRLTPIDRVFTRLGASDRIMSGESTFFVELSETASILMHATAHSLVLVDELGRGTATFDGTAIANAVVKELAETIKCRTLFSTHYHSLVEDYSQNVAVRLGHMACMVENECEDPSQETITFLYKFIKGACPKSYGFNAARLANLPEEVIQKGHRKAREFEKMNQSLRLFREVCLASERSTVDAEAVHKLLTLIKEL
UniProt O75340: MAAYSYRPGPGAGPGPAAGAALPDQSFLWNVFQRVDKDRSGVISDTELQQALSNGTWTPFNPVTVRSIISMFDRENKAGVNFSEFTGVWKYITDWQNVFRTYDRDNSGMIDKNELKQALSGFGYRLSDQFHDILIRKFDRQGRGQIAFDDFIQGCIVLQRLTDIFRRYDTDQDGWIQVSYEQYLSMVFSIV
UniProt Q52LJ0: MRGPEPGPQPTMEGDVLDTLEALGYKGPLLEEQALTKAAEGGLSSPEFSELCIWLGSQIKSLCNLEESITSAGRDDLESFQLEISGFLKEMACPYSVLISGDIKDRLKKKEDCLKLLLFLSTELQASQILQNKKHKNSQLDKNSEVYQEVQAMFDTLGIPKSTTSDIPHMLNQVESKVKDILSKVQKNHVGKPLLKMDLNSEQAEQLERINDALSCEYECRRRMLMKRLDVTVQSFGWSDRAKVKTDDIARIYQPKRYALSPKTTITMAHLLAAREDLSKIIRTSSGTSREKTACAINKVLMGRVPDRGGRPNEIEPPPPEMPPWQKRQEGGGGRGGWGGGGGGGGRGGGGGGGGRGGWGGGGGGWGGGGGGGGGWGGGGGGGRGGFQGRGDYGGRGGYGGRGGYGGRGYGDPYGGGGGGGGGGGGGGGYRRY
UniProt P11940: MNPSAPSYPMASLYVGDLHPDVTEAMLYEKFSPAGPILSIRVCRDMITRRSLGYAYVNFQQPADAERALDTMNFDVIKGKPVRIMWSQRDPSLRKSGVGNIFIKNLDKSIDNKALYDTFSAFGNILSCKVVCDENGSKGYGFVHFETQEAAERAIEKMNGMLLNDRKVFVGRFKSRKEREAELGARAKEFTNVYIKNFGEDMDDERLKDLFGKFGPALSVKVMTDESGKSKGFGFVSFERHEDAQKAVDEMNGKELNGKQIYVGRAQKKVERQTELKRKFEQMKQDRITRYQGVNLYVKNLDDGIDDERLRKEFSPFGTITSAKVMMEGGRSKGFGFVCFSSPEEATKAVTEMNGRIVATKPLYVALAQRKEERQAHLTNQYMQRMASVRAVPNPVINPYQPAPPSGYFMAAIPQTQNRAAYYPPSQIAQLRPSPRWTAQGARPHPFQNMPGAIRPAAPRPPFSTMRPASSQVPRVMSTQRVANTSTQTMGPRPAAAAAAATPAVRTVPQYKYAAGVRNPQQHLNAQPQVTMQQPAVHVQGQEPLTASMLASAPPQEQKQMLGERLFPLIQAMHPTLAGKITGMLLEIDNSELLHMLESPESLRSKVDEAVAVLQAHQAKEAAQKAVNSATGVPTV
UniProt P0CB38: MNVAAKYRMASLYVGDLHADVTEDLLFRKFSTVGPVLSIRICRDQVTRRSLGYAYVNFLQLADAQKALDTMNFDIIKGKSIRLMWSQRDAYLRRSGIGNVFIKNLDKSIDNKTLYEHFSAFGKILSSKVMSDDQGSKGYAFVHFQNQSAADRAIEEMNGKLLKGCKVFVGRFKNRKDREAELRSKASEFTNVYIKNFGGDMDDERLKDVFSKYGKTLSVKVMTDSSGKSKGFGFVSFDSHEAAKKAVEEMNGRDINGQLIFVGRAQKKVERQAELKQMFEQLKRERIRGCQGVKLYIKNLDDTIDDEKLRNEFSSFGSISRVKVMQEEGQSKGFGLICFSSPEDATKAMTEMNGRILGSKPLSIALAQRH
UniProt Q7Z739: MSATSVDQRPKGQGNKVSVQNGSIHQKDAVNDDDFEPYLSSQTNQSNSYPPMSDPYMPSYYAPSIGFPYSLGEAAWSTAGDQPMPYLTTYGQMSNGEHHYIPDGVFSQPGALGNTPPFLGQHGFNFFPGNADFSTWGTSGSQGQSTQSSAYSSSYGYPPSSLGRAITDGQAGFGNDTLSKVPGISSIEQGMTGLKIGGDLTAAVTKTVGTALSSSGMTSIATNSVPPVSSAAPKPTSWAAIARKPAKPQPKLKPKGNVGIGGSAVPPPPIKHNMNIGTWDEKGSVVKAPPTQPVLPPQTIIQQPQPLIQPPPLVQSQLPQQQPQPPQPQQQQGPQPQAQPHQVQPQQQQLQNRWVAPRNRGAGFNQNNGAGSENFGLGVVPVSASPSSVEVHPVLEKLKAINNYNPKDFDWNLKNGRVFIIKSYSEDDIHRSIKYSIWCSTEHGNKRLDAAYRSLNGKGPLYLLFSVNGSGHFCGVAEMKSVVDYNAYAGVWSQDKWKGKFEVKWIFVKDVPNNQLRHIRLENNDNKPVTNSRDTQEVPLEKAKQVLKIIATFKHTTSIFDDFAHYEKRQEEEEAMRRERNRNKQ
UniProt Q8IZH2: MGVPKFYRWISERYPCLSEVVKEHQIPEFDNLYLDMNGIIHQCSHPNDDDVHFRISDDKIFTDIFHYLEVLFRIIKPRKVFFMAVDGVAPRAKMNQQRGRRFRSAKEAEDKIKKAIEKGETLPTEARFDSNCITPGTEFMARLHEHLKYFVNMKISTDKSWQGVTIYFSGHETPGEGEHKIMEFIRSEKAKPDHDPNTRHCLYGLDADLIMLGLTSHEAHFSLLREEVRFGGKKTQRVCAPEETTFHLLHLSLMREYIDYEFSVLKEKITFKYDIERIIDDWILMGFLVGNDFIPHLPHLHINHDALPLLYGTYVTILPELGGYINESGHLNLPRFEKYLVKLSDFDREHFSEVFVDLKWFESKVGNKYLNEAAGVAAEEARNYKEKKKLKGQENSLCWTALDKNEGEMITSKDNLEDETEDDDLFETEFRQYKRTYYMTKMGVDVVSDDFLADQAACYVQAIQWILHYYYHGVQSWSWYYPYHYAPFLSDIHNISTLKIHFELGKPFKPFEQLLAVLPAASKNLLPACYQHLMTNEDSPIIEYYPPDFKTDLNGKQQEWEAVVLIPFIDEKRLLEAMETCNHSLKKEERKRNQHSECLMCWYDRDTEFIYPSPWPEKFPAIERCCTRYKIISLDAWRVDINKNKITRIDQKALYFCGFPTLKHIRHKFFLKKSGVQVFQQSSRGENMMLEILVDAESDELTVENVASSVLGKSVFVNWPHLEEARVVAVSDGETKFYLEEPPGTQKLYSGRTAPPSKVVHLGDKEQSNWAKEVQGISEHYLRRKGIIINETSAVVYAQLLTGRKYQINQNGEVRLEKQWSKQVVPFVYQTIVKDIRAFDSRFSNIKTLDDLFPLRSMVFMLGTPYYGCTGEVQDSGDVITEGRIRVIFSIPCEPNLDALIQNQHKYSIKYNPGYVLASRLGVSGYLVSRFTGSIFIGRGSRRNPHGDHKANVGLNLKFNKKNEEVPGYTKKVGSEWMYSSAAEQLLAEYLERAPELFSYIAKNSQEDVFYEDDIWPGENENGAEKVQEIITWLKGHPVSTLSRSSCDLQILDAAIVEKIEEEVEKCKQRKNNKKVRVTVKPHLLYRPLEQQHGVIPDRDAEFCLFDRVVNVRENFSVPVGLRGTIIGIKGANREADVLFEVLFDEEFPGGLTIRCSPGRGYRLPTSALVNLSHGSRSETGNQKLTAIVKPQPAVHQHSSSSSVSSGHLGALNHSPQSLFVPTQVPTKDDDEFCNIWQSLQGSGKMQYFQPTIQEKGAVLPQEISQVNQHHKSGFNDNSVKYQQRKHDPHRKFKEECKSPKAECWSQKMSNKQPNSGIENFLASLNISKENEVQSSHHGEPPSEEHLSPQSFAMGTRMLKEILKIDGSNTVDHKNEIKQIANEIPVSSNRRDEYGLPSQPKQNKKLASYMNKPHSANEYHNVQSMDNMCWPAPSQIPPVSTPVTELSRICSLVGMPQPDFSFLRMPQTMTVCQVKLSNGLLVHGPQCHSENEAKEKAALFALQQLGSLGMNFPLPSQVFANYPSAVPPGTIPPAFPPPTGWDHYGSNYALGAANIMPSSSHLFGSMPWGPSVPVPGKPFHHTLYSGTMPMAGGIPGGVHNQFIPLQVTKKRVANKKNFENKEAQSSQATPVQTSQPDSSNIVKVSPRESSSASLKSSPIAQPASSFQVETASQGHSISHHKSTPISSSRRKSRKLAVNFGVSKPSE
UniProt Q7Z2W4: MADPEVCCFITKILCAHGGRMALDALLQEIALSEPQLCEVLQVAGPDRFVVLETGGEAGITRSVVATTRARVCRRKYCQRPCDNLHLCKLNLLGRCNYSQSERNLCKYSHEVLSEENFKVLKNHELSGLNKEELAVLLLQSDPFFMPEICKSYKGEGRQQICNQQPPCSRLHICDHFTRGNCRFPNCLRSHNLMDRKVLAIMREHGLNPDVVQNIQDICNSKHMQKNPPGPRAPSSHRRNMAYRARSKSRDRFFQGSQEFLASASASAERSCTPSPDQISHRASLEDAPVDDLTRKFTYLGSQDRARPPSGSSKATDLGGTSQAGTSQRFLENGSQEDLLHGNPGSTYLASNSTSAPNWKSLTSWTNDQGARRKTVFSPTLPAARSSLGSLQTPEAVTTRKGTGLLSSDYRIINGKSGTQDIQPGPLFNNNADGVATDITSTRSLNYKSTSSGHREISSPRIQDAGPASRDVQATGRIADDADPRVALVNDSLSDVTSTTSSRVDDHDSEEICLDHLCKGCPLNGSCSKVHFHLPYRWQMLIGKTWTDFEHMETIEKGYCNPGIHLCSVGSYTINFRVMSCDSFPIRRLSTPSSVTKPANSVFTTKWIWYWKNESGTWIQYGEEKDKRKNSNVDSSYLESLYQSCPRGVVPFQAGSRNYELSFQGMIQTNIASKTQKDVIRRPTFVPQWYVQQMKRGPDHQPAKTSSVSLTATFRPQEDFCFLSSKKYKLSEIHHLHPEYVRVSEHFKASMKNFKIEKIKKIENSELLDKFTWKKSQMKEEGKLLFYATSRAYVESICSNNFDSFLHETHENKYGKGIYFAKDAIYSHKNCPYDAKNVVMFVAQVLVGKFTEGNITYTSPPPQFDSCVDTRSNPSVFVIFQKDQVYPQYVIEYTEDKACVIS

B1: C14ORF166 (protein, UniProt Q9Y224 1-244)
chain: MFRRKLTALDYHNPAGFNCKDETEFRNFIVWLEDQKIRHYKIEDRGNLRNIHSSDWPKFFEKYLRDVNCPFKIQDRQEAIDWLLGLAVRLEYGDNAEKYKDLVPDNSKTADNATKNAEPLINLDVNNPDFKAGVMALANLLQIQRHDDYLVMLKAIRILVQERLTQDAVAKANQTKEGLPVALDKHILGFDTGDAVLNEAAQILRLLHIEELRELQTKINEAIVAVQAIIADPKTDHRLGKVGR
B2: RCTB (protein, UniProt Q9Y3I0 1-505)
chain: MSRSYNDELQFLEKINKNCWRIKKGFVPNMQVEGVFYVNDALEKLMFEELRNACRGGGVGGFLPAMKQIGNVAALPGIVHRSIGLPDVHSGYGFAIGNMAAFDMNDPEAVVSPGGVGFDINCGVRLLRTNLDESDVQPVKEQLAQAMFDHIPVGVGSKGVIPMNAKDLEEALEMGVDWSLREGYAWAEDKEHCEEYGRMLQADPNKVSARAKKRGLPQLGTLGAGNHYAEIQVVDEIFNEYAAKKMGIDHKGQVCVMIHSGSRGLGHQVATDALVAMEKAMKRDKIIVNDRQLACARIASPEGQDYLKGMAAAGNYAWVNRSSMTFLTRQAFAKVFNTTPDDLDLHVIYDVSHNIAKVEQHVVDGKERTLLVHRKGSTRAFPPHHPLIAVDYQLTGQPVLIGGTMGTCSYVLTGTEQGMTETFGTTCHGAGRALSRAKSRRNLDFQDVLDKLADMGIAIRVASPKLVMEEAPESYKNVTDVVNTCHDAGISKKAIKLRPIAVIKG
B3: UBAP2 (protein, UniProt Q5T6F2 1-1119)
chain: MMTSVSSDHCRGAREKPQISAAQSTQPQKQVVQATAEQMRLAQVIFDKNDSDFEAKVKQLMEVTGKNQDECIVALHDCNGDVNKAINILLEGNSDTTSWETVGCKKKNFAKENSENKENREKKSEKESSRGRGNNNRKGRGGNRGREFRGEENGIDCNQVDKPSDRGKRARGRGFGRGRGRGAGRFSTQGMGTFNPADYSDSTSTDVCGTKLVVWEAAQNGADEGTELASNTHNIAQDLSNKSSYGLKGAWKNSVEEWTTEDWTEDLSETKVFTASSAPAENHILPGQSIDLVALLQKPVPHSQASEANSFETSQQQGFGQALVFTNSQHNNQMAPGTGSSTAVNSCSPQSLSSVLGSGFGELAPPKMANITSSQILDQLKAPSLGQFTTTPSTQQNSTSHPTTTTSWDLKPPTSQSSVLSHLDFKSQPEPSPVLSQLSQRQQHQSQAVTVPPPGLESFPSQAKLRESTPGDSPSTVNKLLQLPSTTIENISVSVHQPQPKHIKLAKRRIPPASKIPASAVEMPGSADVTGLNVQFGALEFGSEPSLSEFGSAPSSENSNQIPISLYSKSLSEPLNTSLSMTSAVQNSTYTTSVITSCSLTSSSLNSASPVAMSSSYDQSSVHNRIPYQSPVSSSESAPGTIMNGHGGGRSQQTLDTPKTTGPPSALPSVSSLPSTTSCTALLPSTSQHTGDLTSSPLSQLSSSLSSHQSSLSAHAALSSSTSHTHASVESASSHQSSATFSTAATSVSSSASSGASLSSSMNTANSLCLGGTPASASSSSSRAAPLVTSGKAPPNLPQGVPPLLHNQYLVGPGGLLPAYPIYGYDELQMLQSRLPVDYYGIPFAAPTALASRDGSLANNPYPGDVTKFGRGDSASPAPATTPAQPQQSQSQTHHTAQQPFVNPALPPGYSYTGLPYYTGMPSAFQYGPTMFVPPASAKQHGVNLSTPTPPFQQASGYGQHGYSTGYDDLTQGTAAGDYSKGGYAGSSQAPNKSAGSGPGKGVSVSSSTTGLPDMTGSVYNKTQTFDKQGFHAGTPPPFSLPSVLGSTGPLASGAAPGYAPPPFLHILPAHQQPHSQLLHHHLPQDAQSGSGQRSQPSSLQPKSQASKPAYGNSPYWTN
B4: ANXA7 (protein, UniProt P20073 1-488)
chain: MSYPGYPPTGYPPFPGYPPAGQESSFPPSGQYPYPSGFPPMGGGAYPQVPSSGYPGAGGYPAPGGYPAPGGYPGAPQPGGAPSYPGVPPGQGFGVPPGGAGFSGYPQPPSQSYGGGPAQVPLPGGFPGGQMPSQYPGGQPTYPSQINTDSFSSYPVFSPVSLDYSSEPATVTQVTQGTIRPAANFDAIRDAEILRKAMKGFGTDEQAIVDVVANRSNDQRQKIKAAFKTSYGKDLIKDLKSELSGNMEELILALFMPPTYYDAWSLRKAMQGAGTQERVLIEILCTRTNQEIREIVRCYQSEFGRDLEKDIRSDTSGHFERLLVSMCQGNRDENQSINHQMAQEDAQRLYQAGEGRLGTDESCFNMILATRSFPQLRATMEAYSRMANRDLLSSVSREFSGYVESGLKTILQCALNRPAFFAERLYYAMKGAGTDDSTLVRIVVTRSEIDLVQIKQMFAQMYQKTLGTMIAGDTSGDYRRLLLAIVGQ
B5: HNRNPDL (protein, UniProt O14979 1-420)
chain: MEVPPRLSHVPPPLFPSAPATLASRSLSHWRPRPPRQLAPLLPSLAPSSARQGARRAQRHVTAQQPSRLAGGAAIKGGRRRRPDLFRRHFKSSSIQRSAAAAAATRTARQHPPADSSVTMEDMNEYSNIEEFAEGSKINASKNQQDDGKMFIGGLSWDTSKKDLTEYLSRFGEVVDCTIKTDPVTGRSRGFGFVLFKDAASVDKVLELKEHKLDGKLIDPKRAKALKGKEPPKKVFVGGLSPDTSEEQIKEYFGAFGEIENIELPMDTKTNERRGFCFITYTDEEPVKKLLESRYHQIGSGKCEIKVAQPKEVYRQQQQQQKGGRGAAAGGRGGTRGRGRGQGQNWNQGFNNYYDQGYGNYNSAYGGDQNYSGYGGYDYTGYNYGNYGYGQGYADYSGQQSTYGKASRGGGNHQNNYQPY
B6: PEF1 (protein, UniProt Q9UBV8 1-284)
chain: MASYPYRQGCPGAAGQAPGAPPGSYYPGPPNSGGQYGSGLPPGGGYGGPAPGGPYGPPAGGGPYGHPNPGMFPSGTPGGPYGGAAPGGPYGQPPPSSYGAQQPGLYGQGGAPPNVDPEAYSWFQSVDSDHSGYISMKELKQALVNCNWSSFNDETCLMMINMFDKTKSGRIDVYGFSALWKFIQQWKNLFQQYDRDRSGSISYTELQQALSQMGYNLSPQFTQLLVSRYCPRSANPAMQLDRFIQVCTQLQVLTEAFREKDTAVQGNIRLSFEDFVTMTASRML
B7: TIA1 (protein, UniProt P31483 1-386)
chain: MEDEMPKTLYVGNLSRDVTEALILQLFSQIGPCKNCKMIMDTAGNDPYCFVEFHEHRHAAAALAAMNGRKIMGKEVKVNWATTPSSQKKDTSSSTVVSTQRSQDHFHVFVGDLSPEITTEDIKAAFAPFGRISDARVVKDMATGKSKGYGFVSFFNKWDAENAIQQMGGQWLGGRQIRTNWATRKPPAPKSTYESNTKQLSYDEVVNQSSPSNCTVYCGGVTSGLTEQLMRQTFSPFGQIMEIRVFPDKGYSFVRFNSHESAAHAIVSVNGTTIEGHVVKCYWGKETLDMINPVQQQNQIGYPQPYGQWGQWYGNAQQIGQYMPNGWQVPAYGMYGQAWNQQGFNQTQSSAPWMGPNYGVQPPQGQNGSMLPNQPSGYRVAGYETQ
B8: EDC4 (protein, UniProt Q6P2E9 1-1401)
chain: MASCASIDIEDATQHLRDILKLDRPAGGPSAESPRPSSAYNGDLNGLLVPDPLCSGDSTSANKTGLRTMPPINLQEKQVICLSGDDSSTCIGILAKEVEIVASSDSSISSKARGSNKVKIQPVAKYDWEQKYYYGNLIAVSNSFLAYAIRAANNGSAMVRVISVSTSERTLLKGFTGSVADLAFAHLNSPQLACLDEAGNLFVWRLALVNGKIQEEILVHIRQPEGTPLNHFRRIIWCPFIPEESEDCCEESSPTVALLHEDRAEVWDLDMLRSSHSTWPVDVSQIKQGFIVVKGHSTCLSEGALSPDGTVLATASHDGYVKFWQIYIEGQDEPRCLHEWKPHDGRPLSCLLFCDNHKKQDPDVPFWRFLITGADQNRELKMWCTVSWTCLQTIRFSPDIFSSVSVPPSLKVCLDLSAEYLILSDVQRKVLYVMELLQNQEEGHACFSSISEFLLTHPVLSFGIQVVSRCRLRHTEVLPAEEENDSLGADGTHGAGAMESAAGVLIKLFCVHTKALQDVQIRFQPQLNPDVVAPLPTHTAHEDFTFGESRPELGSEGLGSAAHGSQPDLRRIVELPAPADFLSLSSETKPKLMTPDAFMTPSASLQQITASPSSSSSGSSSSSSSSSSSLTAVSAMSSTSAVDPSLTRPPEELTLSPKLQLDGSLTMSSSGSLQASPRGLLPGLLPAPADKLTPKGPGQVPTATSALSLELQEVEPLGLPQASPSRTRSPDVISSASTALSQDIPEIASEALSRGFGSSAPEGLEPDSMASAASALHLLSPRPRPGPELGPQLGLDGGPGDGDRHNTPSLLEAALTQEASTPDSQVWPTAPDITRETCSTLAESPRNGLQEKHKSLAFHRPPYHLLQQRDSQDASAEQSDHDDEVASLASASGGFGTKVPAPRLPAKDWKTKGSPRTSPKLKRKSKKDDGDAAMGSRLTEHQVAEPPEDWPALIWQQQRELAELRHSQEELLQRLCTQLEGLQSTVTGHVERALETRHEQEQRRLERALAEGQQRGGQLQEQLTQQLSQALSSAVAGRLERSIRDEIKKTVPPCVSRSLEPMAGQLSNSVATKLTAVEGSMKENISKLLKSKNLTDAIARAAADTLQGPMQAAYREAFQSVVLPAFEKSCQAMFQQINDSFRLGTQEYLQQLESHMKSRKAREQEAREPVLAQLRGLVSTLQSATEQMAATVAGSVRAEVQHQLHVAVGSLQESILAQVQRIVKGEVSVALKEQQAAVTSSIMQAMRSAAGTPVPSAHLDCQAQQAHILQLLQQGHLNQAFQQALTAADLNLVLYVCETVDPAQVFGQPPCPLSQPVLLSLIQQLASDLGTRTDLKLSYLEEAVMHLDHSDPITRDHMGSVMAQVRQKLFQFLQAEPHNSLGKAARRLSLMLHGLVTPSLP
B9: HNRNPH3 (protein, UniProt P31942 1-346)
chain: MDWVMKHNGPNDASDGTVRLRGLPFGCSKEEIVQFFQGLEIVPNGITLTMDYQGRSTGEAFVQFASKEIAENALGKHKERIGHRYIEIFRSSRSEIKGFYDPPRRLLGQRPGPYDRPIGGRGGYYGAGRGSMYDRMRRGGDGYDGGYGGFDDYGGYNNYGYGNDGFDDRMRDGRGMGGHGYGGAGDASSGFHGGHFVHMRGLPFRATENDIANFFSPLNPIRVHIDIGADGRATGEADVEFVTHEDAVAAMSKDKNNMQHRYIELFLNSTPGGGSGMGGSGMGGYGRDGMDNQGGYGSVGRMGMGNNYSGGYGTPDGLGGYGRGGGGSGGYYGQGGMSGGGWRGMY

target: G3BP1-APEX2-GFP (human (endogenous in HEK293T)) (UniProt Q13283); experiment: proximity labelling

binding, binds:
HNRNPAB (from UniProt Q99729 1-332)
FAM98A (from UniProt Q8NCA5 1-518)
MSH6 (from UniProt P52701 1-1360)
UBAP2L (from UniProt Q14157 1-1087)
PDCD6 (from UniProt O75340 1-191)
FAM98B (from UniProt Q52LJ0 1-433)
PABPC1 (from UniProt P11940 1-636)
PABPC4L (from UniProt P0CB38 1-370)
YTHDF3 (from UniProt Q7Z739 1-585)
XRN1 (from UniProt Q8IZH2 1-1706)
ZC3HAV1 (from UniProt Q7Z2W4 1-902)
B1
B2
B3
B4
B5
B6
B7
B8
B9
